According to PubChem BioAssay AID1487 (National Center for Advancing Translational Sciences (NCATS), 2009):
This is one part of the list. Shown are side measurements of this screen, not its main read-out; they come without a call. Most of these compounds were active or inconclusive in the main read-out, so they are no random draw. The note in brackets gives the kind of curve behind each potency; many fits are weak.

Experiment: qHTS Assay for Modulators of Lamin A Splicing
Settings: HeLa LMNA splicing GFP/RFP minigene ratio, 48 h
In short: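 S3 HeLa stable clones carrying a lamin A-EGFP splicing minigene plus DsRed2 were seeded at 600 cells/well in Opti-MEM with 2% FBS, pin-dosed and incubated 48 h at 37°C. Acumen cytometry (488 nm) gave the GFP/RFP total-intensity ratio.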

[1] = measured here: GFP splicing reporter channel
[2] = measured here: RFP viability control channel

## CC(=O)c1ccc(Oc2ccc(C(=O)c3ccc(C)c(C)c3)cc2[N+](=O)[O-])cc1
[1]
  AC50: 3.98 µM [rising, full curve, poor fit]
[2]
  AC50: 31.6 µM [rising, single point]

## COc1cc2c(cc1C=O)OCO2
[2]
  AC50: 0.126 µM [falling, partial curve, poor fit]

## C=Cn1ccnc1P(=S)(c1c(C)nn(-c2ccccc2)c1C)c1nccn1C=C
[1]
  AC50: 0.00891 µM [rising, full curve, poor fit]
[2]
  AC50: 0.00708 µM [rising, full curve, poor fit]

## Cc1cc(S(=O)(=O)NC(C)C)ccc1OCC(=O)N1CCN(Cc2ccc3c(c2)OCO3)CC1
[1]
  AC50: 25.1 µM [rising, single point]
[2]
  AC50: 14.1 µM [rising, partial curve]

## NCC(CP(=O)(O)O)c1ccc(Cl)cc1 (stereo unspecified)
[2]
  AC50: 0.00224 µM [falling, full curve, poor fit]

## CCC(=O)O[C@@H]1[C@@H](OC(C)=O)[C@@]2(O)C(C[C@H](O)C2(C)C)[C@](C)(O)[C@H]2CC[C@@H]3[C@@H](O)[C@]12C[C@@]3(C)O (stereo partly specified)
[2]
  AC50: 1.58 µM [rising, partial curve, poor fit]

## CCOP(=O)(OCC)/C(C#N)=C/c1ccc(Br)cc1
[2]
  AC50: 0.891 µM [falling, full curve, poor fit]

## Clc1ccc(CS[C@@H](Cn2ccnc2)c2ccc(Cl)cc2Cl)cc1
[2]
  AC50: 0.000398 µM [falling, full curve, poor fit]

## O=C(Cn1ncc2c3ccccc3n(Cc3ccccc3F)c2c1=O)N1CCC2(CC1)OCCO2
[1]
  AC50: 11.2 µM [rising, partial curve, poor fit]
[2]
  AC50: 22.4 µM [rising, single point]

## CN1C(=O)N(C)C(=O)C2(Cc3c(nc4ccccn4c3=O)N3CCc4ccccc4C32)C1=O (stereo unspecified)
[2]
  AC50: 2.51 µM [rising, partial curve, poor fit]

## O=C1CN=C(c2cccs2)c2c(sc3c2CCCC3)N1
[1]
  AC50: 14.1 µM [falling, single point]
[2]
  AC50: 22.4 µM [falling, single point]

## CCCCCc1nc2ccccc2c(=O)n1-c1ccccc1[N+](=O)[O-]
[2]
  AC50: 31.6 µM [rising, single point]

## CN[C@H]1C[C@H]2O[C@@](C)([C@H]1OC)n1c3ccccc3c3c4c(c5c6ccccc6n2c5c31)C(=O)NC4
[1]
  AC50: 0.708 µM [falling, full curve]
[2]
  AC50: 1 µM [falling, full curve]

## COc1cc(C2C(C#N)=C(N)Oc3cc(O)ccc32)cc(OC)c1OC (stereo unspecified)
[1]
  AC50: 3.16 µM [falling, full curve]
[2]
  AC50: 3.98 µM [falling, full curve]
